Like-named read-outs stand apart in the source and are kept apart here. These are yes or no findings as the source states them, for the method shown. In cells and extracts the contact can be indirect. Some results given as binding are weak or reduced against the parent protein; the word gives no strength. For some assays here: Sequences can lack the tags named with a protein. Each block holds one binder with its values, some of them ahead of it.
Legend:
Test in all cases: co-IP
[1] = biological target: T1, Flag-tagged SRSF7 (in 293T cells) (UniProt Q16629)
T1 sequence: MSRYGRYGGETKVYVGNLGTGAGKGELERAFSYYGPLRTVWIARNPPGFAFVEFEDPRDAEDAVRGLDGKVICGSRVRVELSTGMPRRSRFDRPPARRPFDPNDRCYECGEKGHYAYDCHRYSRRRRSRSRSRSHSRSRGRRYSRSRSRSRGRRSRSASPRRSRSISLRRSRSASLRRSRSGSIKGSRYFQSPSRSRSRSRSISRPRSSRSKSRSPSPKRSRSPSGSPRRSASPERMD

By UniProt entry, the sequences of proteins in these tests, tags left out.
UniProt Q86U44, whole entry: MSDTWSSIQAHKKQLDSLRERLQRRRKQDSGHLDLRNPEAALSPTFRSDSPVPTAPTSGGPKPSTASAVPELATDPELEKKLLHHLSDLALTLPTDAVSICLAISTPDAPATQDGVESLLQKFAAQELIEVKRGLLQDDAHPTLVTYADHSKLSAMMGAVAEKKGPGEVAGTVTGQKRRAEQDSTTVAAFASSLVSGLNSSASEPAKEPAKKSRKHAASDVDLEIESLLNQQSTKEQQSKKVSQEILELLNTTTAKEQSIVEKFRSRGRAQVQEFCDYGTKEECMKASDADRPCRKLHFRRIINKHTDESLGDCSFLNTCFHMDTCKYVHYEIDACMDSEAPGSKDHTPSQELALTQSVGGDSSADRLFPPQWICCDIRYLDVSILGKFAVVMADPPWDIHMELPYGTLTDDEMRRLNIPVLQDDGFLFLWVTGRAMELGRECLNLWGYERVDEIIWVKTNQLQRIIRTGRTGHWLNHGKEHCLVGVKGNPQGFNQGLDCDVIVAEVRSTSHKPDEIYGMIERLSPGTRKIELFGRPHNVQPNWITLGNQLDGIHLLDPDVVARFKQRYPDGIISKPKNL

[2] = biological target: T2, Flag-tagged SRSF7 (serine/arginine-rich splicing factor 7), full length (UniProt Q16629)
T2 sequence: T1 sequence

[3] = biological target: T2, Flag-tagged SRSF7 (serine/arginine-rich splicing factor 7), full length; remark: listed apart in the source
[4] = biological target: Flag-tagged METTL3, full length (UniProt Q86U44)
[5] = biological target: T3, Flag-tagged WTAP, full length (UniProt Q15007)
T3 sequence: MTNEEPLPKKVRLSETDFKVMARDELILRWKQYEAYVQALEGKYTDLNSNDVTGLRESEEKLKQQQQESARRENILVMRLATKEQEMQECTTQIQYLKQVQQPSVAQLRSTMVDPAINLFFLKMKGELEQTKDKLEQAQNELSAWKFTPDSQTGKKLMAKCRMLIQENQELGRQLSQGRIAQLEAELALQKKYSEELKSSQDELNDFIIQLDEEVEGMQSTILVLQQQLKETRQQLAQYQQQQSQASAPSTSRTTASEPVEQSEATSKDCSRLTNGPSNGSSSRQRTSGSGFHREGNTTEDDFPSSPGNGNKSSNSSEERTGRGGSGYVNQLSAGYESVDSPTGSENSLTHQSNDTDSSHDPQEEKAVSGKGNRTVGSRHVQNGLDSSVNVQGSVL

binding [1]: binds
B1: endogenous METTL14 (293T cells) (protein, UniProt Q9HCE5 1-456)
chain: MDSRLQEIRERQKLRRQLLAQQLGAESADSIGAVLNSKDEQREIAETRETCRASYDTSAPNAKRKYLDEGETDEDKMEEYKDELEMQQDEENLPYEEEIYKDSSTFLKGTQSLNPHNDYCQHFVDTGHRPQNFIRDVGLADRFEEYPKLRELIRLKDELIAKSNTPPMYLQADIEAFDIRELTPKFDVILLEPPLEEYYRETGITANEKCWTWDDIMKLEIDEIAAPRSFIFLWCGSGEGLDLGRVCLRKWGYRRCEDICWIKTNKNNPGKTKTLDPKAVFQRTKEHCLMGIKGTVKRSTDGDFIHANVDIDLIITEEPEIGNIEKPVEIFHIIEHFCLGRRRLHLFGRDSTIRPGWLTVGPTLTNSNYNAETYASYFSAPNSYLTGCTEEIERLRPKSPPPKSKSDRGGGAPRGGGRGGTSAGRGRERNRSNFRGERGGFRGGRGGAHRGGFPPR

binding [2]: binds | binding [3]: binds
B2: endogenous METTL14 (U87MG cells) (protein, UniProt Q9HCE5 1-456)
chain: B1 chain

binding [4]: binds | binding [5]: binds
B3: endogenous SRSF7 (U87MG cells) (protein, UniProt Q16629 1-238)
chain: T1 sequence
